Source: patent US20040267283A1, “Method, device and kit for body decoration” (priority 2003, published 2004)
Where two headings read alike, the source gives them in different places.

What was measured:
[1] = test system: swine ear skin; settings: Active
Procedure: An in-vitro skin penetration study was conducted to determine which combination of parameters results in the maximum amount of active substance, e.g., color formulation, being delivered into the skin, i.e., the dermis and epidermis, but not through the skin, i.e., beneath the epidermis.
The in-vitro skin penetration study generally included the following test procedure. Decoration ink, as in embodiments of the present invention, was applied on a piece of swine ear skin. The swine skin was excised to full thickness (epidermis and dermis) to an approximate depth of 500-1000 μm. The skin was removed from the ear within a few hours of sacrifice and was either used immediately or stored frozen for a period of no longer than 2-3 weeks. The ink-applied swine skin was thereafter placed in vertical diffusion cells, in which the skin membrane separated the physically and electrically isolated anode and cathode chambers from the receptor phase. See, e.g., P. Glikfeld, et al., “A new system for in vitro studies of iontophoresis,” Pharma. Res. 5: 443-446 (1988). Alternatively, the swine skin may be placed in modified side-by-side cells of a newer design. The vertical cells' receptor compartment contained physiologically buffered saline (PBS) at pH 7. Then, two electrodes, i.e., anode and cathode, were placed on the swine skin over the ink. The exposed area of skin in each electrode chamber was 0.64-0.67 cm^2.
In each experiment of the study, preparation with electric current (“Active”) and without electric current (“Passive”) were tested. Exposure period was typically 20-30 minutes, but can be altered according to the designated time of patch application. Six replicates were performed per experiment. Prior to each experiment, the viability and integrity of the swine skin barrier function was checked via a measurement of transepidermal water loss (TEWL). Perturbation of the skin barrier, either by physical disruption, chemical attack, or because of disease, could severely compromise the role of the stratum corneum (“SC”).
At the end of the exposure period, the entire receptor compartment was drained and the solution reserved for subsequent analysis of the dye(s) and/or pigment(s). The swine skin was then removed from the receptor compartment, and the skin's surfaces carefully cleaned and dried. Subsequently, the stratum corneum (“SC”) beneath the cathode chamber was removed by 15 adhesive tape strippings (“TS”). The depth of penetration was measured by noting the number of tape strippings required to remove the ink. The ink was extracted from the respective tapes and assayed to yield a total uptake into the SC. […] The ink was determined quantitatively using customary analytical procedures (e.g., HPLC, UV-Vis spectrum, GC, radiolabeled detection, etc.), as applicable.
The in-vitro skin penetration study was conducted using an in-vitro modified Franz Cell System, equipped with the necessary components to exert micro-powered electric current, which can simulate the expected effect of the iontophoretic patch of the present invention.
In these experiments, the enhancing effect of iontophoresis and/or electroosmosis on skin penetration of different dyes was assessed. The assessment included evaluation of solubility and conductivity of the dyes followed by iontophoresis versus passive in-vitro skin penetration. The following properties were measured to determine the enhancing effect of iontophoretic induction on the dyes' skin penetration: uniformity of the dyeing by observation; and penetration depth by tape stripping.
The experiments performed in the first part of the study are described below. In these experiments, Hydroxyethyl cellulose with NaCl may comprise hydroxyethyl cellulose (Natrosol 250 HHBR, Hercules) at 1% wt., NaCl at 10% wt., and water at 98% wt.

[2] = test system: swine skin; assay: In-vitro skin penetration, hydrogel patches on stretched skin (vertical diffusion cells without cell tops), tape stripping; type: in vitro ADME; settings: Active, heart shape, current = 500 μA/cm^2, skin cleaned with 10% lactic acid
Procedure: In the second part of the in-vitro skin penetration study, the color application included the use of a hydrogel patch and dye FD&C Red no. 40 and additional dyes, Acid Blue 1 (Blue V) and Indocyanine green, on the swine skin. All chemicals used were analytical grade, obtained from standard supply houses (Sigma, VWR, etc.). […] In these experiments, the depth of penetration was tested for the additional dyes using iontophoresis and/or electroosmosis. Additionally, extensive work was done in order to establish a shaped tattoo that is sharp and has strong color imprint. The experiments were also directed to the effect of the application duration on the tattoo life span. The following properties of the tattoo were measured to determine the effects of iontophoresis on the dyes and pigments' skin penetration: uniformity of the dyeing by observation; penetration depth by tape stripping; and water durability by washing the skin with tap water.
The experiments performed in this second part of the study are described below. Experiments 2.1-2.8 and 2.10-2.14 were conducted on in-vitro swine skin. Experiments 2.9, 2.15, and 2.16 were conducted on in-vivo human skin. FIGS. 6-14 illustrate the body decoration results from the experiments.
This experiment was conducted to determine the dye penetration depth of stretched skin, as would be the case on the subject's body area. In the vertical diffusion cells without the cell tops, the skin was stretched with the cell clamps. To increase the water content of the hydrogel in the patches, the hydrogel was soaked with ddw for 2 minutes. Excess water was then absorbed. Tissue paper heart-shaped pieces were soaked in Blue V solution (100 mg/ml in ddw). The blue heart shapes were placed on the patches' hydrogel and removed a few seconds later, leaving a blue heart-shaped imprint on the hydrogel. The hydrogel patches with the blue heart-shaped imprint were placed on the skin after the skin was cleaned with 10% lactic acid. […] The dye penetration depth was determined by tape stripping. […]

[3] = test system: human skin; assay: In-vivo human skin tattoo with imprinted hydrogel patches; settings: human study, 50 mg/ml in ddw
[4] = Exp 2.15, Active, star shape, with polyester as a partition, 0.04 mAmp, 40 min, skin cleaned with 10% lactic acid
[5] = Exp 2.16, Active With polyester, star shape, 0.04 mAmp, 60 min, skin cleaned with 10% lactic acid
[6] = Exp 2.16, Active Without polyester, star shape, 0.04 mAmp, 60 min, skin cleaned with 10% lactic acid
[7] = Exp 2.9, Active, cathode, heart shape, voltage = 3 volt, 20 min, forearm cleaned with 10% lactic acid
[8] = Exp 1.10, Blue no. 1 40 mg/ml in ethanol + 20% ddw, Yellow no. 6 and Red no. 40 20 mg/ml in ethanol + 30% ddw, dried color + gel, current limited to 335 mA (500 μA/cm^2), skin without Stratum Corneum
[9] = Exp 1.8, 20 mg/ml in ethanol + 30% ddw, dried color + gel, current unlimited, skin cleaned with 70% ethanol, full skin

CCN(CC)c1ccc(C(=C2C=CC(=[N+](CC)CC)C=C2)c2ccc(S(=O)(=O)[O-])cc2S(=O)(=O)[O-])cc1.[Na+] [Blue V, Acid Blue 1]
Uniformity of the dyeing by observation ([1]; Exp 2.1, 20 mg/ml in ethanol with 20% ddw, dried dye + gel, current = 500 μA/cm^2, skin cleaned with 10% lactic acid, 30 min): Uniform dyeing | Uniformity of the dyeing by observation ([2]; Exp 2.13, hydrogel with NaCl, 100 mg/ml in ddw with 10% ethanol, 20 min): Uniform dyeing | Uniformity of the dyeing by observation ([2]; Exp 2.6, 100 mg/ml in ddw, stretched skin, hydrogel soaked with ddw 2 minutes, 30 min): Uniform sharp heart shape | Uniformity of the dyeing by observation ([2]; Exp 2.8, 100 mg/ml in ddw, hydrogel soaked in ddw for only few seconds): Uniform heart shape | Color strength of the dyeing by observation [3, 4]: Strong color. | Uniformity of the dyeing by observation [3, 4]: Uniform star shape dyeing. | Color strength of the dyeing by observation [3, 5]: Strong color. | Uniformity of the dyeing by observation [3, 5]: Uniform star shape dyeing. | Color strength of the dyeing by observation [3, 6]: Strong color. | Uniformity of the dyeing by observation [3, 6]: Uniform star shape dyeing. | Color strength of the dyeing by observation [3, 7]: Strong color | Uniformity of the dyeing by observation [3, 7]: Uniform heart shape

CCN(Cc1cccc(S(=O)(=O)[O-])c1)c1ccc(C(=C2C=CC(=[N+](CC)Cc3cccc(S(=O)(=O)[O-])c3)C=C2)c2ccccc2S(=O)(=O)[O-])cc1.[Na+].[Na+] [Blue no. 1, FD&C Blue no. 1]
Uniformity of the dyeing by observation [1, 8]: Spot dyeing | Uniformity of the dyeing by observation ([1]; Exp 1.4, 40 mg/ml in ethanol + 20% ddw, dried color + gel, current unlimited, full skin, 30 min): Spot dyeing | Uniformity of the dyeing by observation ([1]; Exp 1.6, 40 mg/ml in ethanol + 20% ddw, dried color + gel, current unlimited, skin without Stratum Corneum): Uniform dyeing | Uniformity of the dyeing by observation ([1]; Exp 1.7, 40 mg/ml in ethanol + 20% ddw, dried color + gel, current unlimited, skin cleaned with Acetone, skin without Stratum Corneum): Spot dyeing

CC1(C)C(/C=C/C=C/C=C/C=C2\N(CCCCS(=O)(=O)O)c3ccc4ccccc4c3C2(C)C)=[N+](CCCCS(=O)(=O)[O-])c2ccc3ccccc3c21 [Green, Indocyanine green, reference compound]
Uniformity of the dyeing by observation ([1]; Exp 2.10, 25 mg/ml in 100% ethanol, dried dye + gel, current = 500 μA/cm^2, skin cleaned with 10% lactic acid, 30 min): Uniform dyeing | Uniformity of the dyeing by observation ([1]; Exp 2.7, 2 mg/ml in ethanol with 40% ddw, dried dye + gel, current = 500 μA/cm^2, skin cleaned with 10% lactic acid, 30 min): Uniform dyeing

COc1cc(S(=O)(=O)[O-])c(C)cc1N=Nc1c(O)ccc2cc(S(=O)(=O)[O-])ccc12.[Na+].[Na+] [Red no. 40, FD&C Red no. 40]
Uniformity of the dyeing by observation [1, 8]: Spot dyeing | Uniformity of the dyeing by observation ([1]; Exp 1.11, 20 mg/ml in ethanol + 30% ddw, dried color + gel, current limited to 335 mA (500 μA/cm^2), skin cleaned with 10% lactic acid, full skin): Spot dyeing | Uniformity of the dyeing by observation ([1]; Exp 1.12, 20 mg/ml in ethanol + 30% ddw, dried color + gel, current limited to 335 mA (500 μA/cm^2), skin cleaned with 5% lactic acid, full skin): Spot dyeing | Uniformity of the dyeing by observation ([1]; Exp 1.13, 20 mg/ml in ethanol + 30% ddw, dried color + hydrogel, current limited to 335 mA, after 7 min voltage limited to 3 V, skin without Stratum Corneum): Spot dyeing | Uniformity of the dyeing by observation [1, 9]: Spot dyeing

O=S(=O)([O-])c1ccc(N=Nc2c(O)ccc3cc(S(=O)(=O)[O-])ccc23)cc1.[Na+].[Na+] [Yellow no. 6, FD&C Yellow no. 6]
Uniformity of the dyeing by observation, after 1 hour ([1]; Exp 1.10, 20 mg/ml in ethanol + 30% ddw, dried color + gel, current limited to 335 mA (500 μA/cm^2), skin without Stratum Corneum, after 1 hour): hour uniform dyeing was | Uniformity of the dyeing by observation [1, 8]: Spot dyeing but after 1 | Uniformity of the dyeing by observation [1, 9]: Spot dyeing | Uniformity of the dyeing by observation ([1]; Exp 1.9, 20 mg/ml in ethanol + 30% ddw, dried color + gel, current limited to 335 mA (500 μA/cm^2), skin cleaned with 70% ethanol, full skin): Spot dyeing
